PubChem BioAssay AID743121, NCATS, 2013

- Screen: 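Partners whose loss is lethal together with topoisomerase I blockade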 (primary screen)
- Cell system: MDA-MB-231 cells, a human breast cancer line
- Reagent: single siRNA against human genes, 20 nM siRNA (0.8 pmol per well)
- Timing: 120 h (drug added 48 h after transfection, read 72 h later)
- Challenge: camptothecin 20 nM (about EC30) for 72 h; vehicle 0.1% DMSO in parallel plates
- Measurement: 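CellTiter-Glo ATP signal, scaled to control siRNA as percent viability; sensitisation given as log2 of untreated divided by camptothecin-treated viability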
- Direction: log2 vehicle/camptothecin viability: higher = stronger sensitisation to camptothecin; viability with camptothecin and viability without drug: higher = more viable cells
- Call rule: 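Each gene scored by redundant siRNA activity (RSA) over its individual siRNA ratios; a gene is called active at p < 0.001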
Here is an unselected part of about 26,000 reagents. 167 of them (0.63%) were called active. 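Calls are per gene from RSA p-values that are not deposited; an individual active-marked siRNA can sensitise only weakly.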 Unmarked entries are inactive. Reagents against one gene are numbered here.

no.	Gene	reagent no.	log2 vehicle/camptothecin viability	viability with camptothecin (% of control)	viability without drug (% of control)
1	BCHE	1	-0.124	111	102
2	BCHE	2	-0.391	90.8	69.2
3	BCHE	3	-0.0573	109	105
4	BCHE	4	-0.295	99.6	81.2
5	FN1	1	1.11	31.6	68.5
6	FN1	2	-0.0604	98.7	94.7
7	FN1	3	-0.0382	95	92.5
8	FN1	4	-0.14	61.4	55.7
9	NPPB	1	-0.413	49.8	37.4
10	NPPB	2	-0.633	114	73.7
11	NPPB	3	-0.494	59.3	42.1
12	NPPB	4	-0.0521	84	81
13	ATP2B3	1	0.0245	89.5	91
14	ATP2B3	2	0.0421	102	105
15	ATP2B3	3	-0.483	86.8	62.1
16	ATP2B3	4	-2.51	97.2	17
17	PRKY	1	-0.658	81.9	51.9
18	PRKY	2	-0.133	49.7	45.4
19	PRKY	3	-0.183	91.4	80.5
20	PRKY	4	-0.298	101	82.3
21	DOK5	1	-0.168	130	115
22	DOK5	2	-0.469	67.3	48.6
23	DOK5	3	-0.019	115	113
24	DOK5	4	-0.0785	98.1	92.9
25	ACAD11	1	0.0284	101	103
26	ACAD11	2	-0.275	85.5	70.7
27	ACAD11	3	0.0988	88.6	94.9
28	ACAD11	4	0.477	53.3	74.2

Sorted by “viability without drug (% of control)” (highest first): some entries from above
Gene	reagent no.	log2 vehicle/camptothecin viability	viability with camptothecin (% of control)	viability without drug (% of control)
ATP2B3	2	0.0421	102	105
ATP2B3	1	0.0245	89.5	91
NPPB	4	-0.0521	84	81
NPPB	2	-0.633	114	73.7
ATP2B3	3	-0.483	86.8	62.1
NPPB	3	-0.494	59.3	42.1

The listing continues:
no.	Gene	reagent no.	log2 vehicle/camptothecin viability	viability with camptothecin (% of control)	viability without drug (% of control)
29	PSMD2	1	-0.515	59.2	41.4
30	PSMD2	2	-0.117	23.8	21.9
31	PSMD2	3	0.0835	31.7	33.6
32	BSG	1	-0.0934	66.7	62.5
33	BSG	2	-0.0849	69.8	65.8
34	BSG	3	0.118	84.2	91.3
35	DDC	1	-0.241	68.7	58.1
36	DDC	2	0.0728	39.6	41.7
37	DDC	3	-0.149	47.3	42.6
38	DDC	4	-0.512	72.9	51.1
39	KCNF1	1	0.205	26.1	30.1
40	KCNF1	2	1.04	21.5	44.2
41	KCNF1	3	-0.288	88	72.1
42	ABCB6	1	-0.17	68	60.5
43	ABCB6	2	-0.59	85.6	56.9
44	ABCB6	3	-0.131	97.1	88.7
45	ABCB6	4	-0.239	101	85.5
46	ARRB2	1	-0.297	43.5	35.4
47	ARRB2	2	-0.125	80.2	73.6
48	ARRB2	3	0.514	62.7	89.5
49	ARRB2	4	0.0893	91.7	97.5
